Test results taken from paper PMC5155539.
Results are given in words; binding and its absence hold for the method and conditions named. In cells and extracts the contact can be indirect. A yes stands for co-enrichment or nearness to the bait. Other partners may have been found. For some assays here: Tags and fused reporters may be left off the sequences shown.

How the values were obtained:
[1] = target: T1, GFP-ALADIN fusion protein (human) (UniProt Q9NRG9); test: affinity purification with mass spectrometry; GFP-Trap_A agarose beads, whole cell lysates (500 ug protein) of NCI-H295R cells expressing GFP-ALADIN, GFP-expressing cells as control; bound overnight at 4°C; eluate analysed by tandem mass spectrometry; repeated three times
T1 sequence: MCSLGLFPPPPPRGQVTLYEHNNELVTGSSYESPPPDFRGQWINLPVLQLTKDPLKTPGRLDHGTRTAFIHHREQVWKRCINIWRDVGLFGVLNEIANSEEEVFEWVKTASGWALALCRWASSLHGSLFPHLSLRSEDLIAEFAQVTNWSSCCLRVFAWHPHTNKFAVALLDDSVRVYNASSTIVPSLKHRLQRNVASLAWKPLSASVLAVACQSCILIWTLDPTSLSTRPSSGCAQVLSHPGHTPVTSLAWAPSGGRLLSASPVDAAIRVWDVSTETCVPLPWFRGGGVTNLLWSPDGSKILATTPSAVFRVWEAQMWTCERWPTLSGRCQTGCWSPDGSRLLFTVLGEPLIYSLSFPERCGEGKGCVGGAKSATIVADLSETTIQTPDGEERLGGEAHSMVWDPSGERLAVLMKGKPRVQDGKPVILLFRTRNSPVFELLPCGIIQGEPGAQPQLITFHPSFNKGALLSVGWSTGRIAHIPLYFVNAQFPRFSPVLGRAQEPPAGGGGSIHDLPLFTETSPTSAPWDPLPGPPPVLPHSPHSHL

[2] = target: T2, ALADIN (endogenous) (human (endogenous in NCI-H295R)) (UniProt Q9NRG9); test: affinity purification with mass spectrometry; anti-ALADIN on Protein G UltraLink resin sepharose beads, NCI-H295R lysate (500 ug protein), normal mouse IgG as control; bound overnight; eluate analysed by tandem mass spectrometry; conducted once
T2 sequence: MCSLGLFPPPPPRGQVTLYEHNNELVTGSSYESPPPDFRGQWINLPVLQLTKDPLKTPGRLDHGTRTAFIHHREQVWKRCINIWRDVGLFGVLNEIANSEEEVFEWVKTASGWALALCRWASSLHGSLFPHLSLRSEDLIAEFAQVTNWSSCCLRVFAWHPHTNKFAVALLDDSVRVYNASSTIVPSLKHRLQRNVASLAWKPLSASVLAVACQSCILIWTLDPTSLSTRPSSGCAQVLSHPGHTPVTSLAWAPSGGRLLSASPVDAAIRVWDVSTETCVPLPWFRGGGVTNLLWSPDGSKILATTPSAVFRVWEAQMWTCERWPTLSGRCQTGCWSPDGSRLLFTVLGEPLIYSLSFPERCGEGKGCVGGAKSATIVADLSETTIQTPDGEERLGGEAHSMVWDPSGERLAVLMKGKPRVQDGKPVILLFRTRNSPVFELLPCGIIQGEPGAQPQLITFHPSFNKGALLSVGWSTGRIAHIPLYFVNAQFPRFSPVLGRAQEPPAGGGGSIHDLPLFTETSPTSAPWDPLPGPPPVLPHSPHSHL

B1: progesterone receptor membrane component 2 (PGRMC2), endogenous (protein, UniProt O15173 1-223)
chain: MAAGDGDVKLGTLGSGSESSNDGGSESPGDAGAAAEGGGWAAAALALLTGGGEMLLNVALVALVLLGAYRLWVRWGRRGLGAGAGAGEESPATSLPRMKKRDFSLEQLRQYDGSRNPRILLAVNGKVFDVTKGSKFYGPAGPYGIFAGRDASRGLATFCLDKDALRDEYDDLSDLNAVQMESVREWEMQFKEKYDYVGRLLKPGEEPSEYTDEEDTKDHNKQD
binding [1]: binds
binding [2]: binds
